For at least one compound, name, drawing or mass did not settle the structure.
Experiments:
old mouse oocytes = assay: In vitro maturation of old mouse oocytes in medium supplemented with drug; type: cell-based
Text: Mouse oocyte in vitro maturation: After Euthanasia, ovaries were collected and dissected in L-15 medium (011151A) and supplemented with 200 um IBMX (17018) to prevent meiotic progression. Prophase I arrested oocytes were identified by visualization of the typical germinal vesicle and collected under a binocular using a Stripper (MD-MXL3-STR-CGR). After collection, oocytes were transferred into a-MEM medium (22561021) supplemented with IBMX covered with Mineral oil (M8410-11) to prevent evaporation, for recovery time of 25 min at 37° in a 5% CO2 incubator, and then washed in IBMX free a-MEM medium to initiate meiosis. The oocytes were incubated in a-MEM under oil in the incubator for 6 hours for prophase I or incubated for 19 hours for metaphase II. To assess maturation rates, oocytes were incubated for 19 hours after release and then fixed and stained by Hoechst to examine the entry into the second meiotic division. See below amendments for drug treatments. […]
It was next tested if similar results could be achieved without genetic manipulation. […] As before, old oocytes were incubated in IVM media (a-MEM) supplemented with the inhibitors for 24 hours and maturation was measured. Oocytes with both first polar body extrusion and proper division of chromosomes (as evaluated by Hoechst staining) were considered as mature. […]

human oocytes = assay: Human oocyte IVM with HAT or RT inhibitor supplementation; type: cell-based; details: oocytes from young fertility preservation patients, Sage medium with LH and FSH, FIG. 11
Protocol: Human IVM protocol: Germinal vesicle (GV) oocytes were subjected to IVM in a Sage medium (A1-rad Medical) supplemented with 0.075 IU/mL luteinizing hormone (LH) and 0.075 IU/mL follicle stimulating hormone (FSH) overnight. HAT and/or RT inhibitors were added to the overnight culture in some experiments. All naked oocytes that were found were transferred for up to 48 hours of incubation in oocyte maturation medium (Sage In-Vitro Fertilization) supplemented with 0.075 IU/mL human menopausal gonadotropin (hMG) (Menopur, Ferring Pharmaceuticals). HAT and/or RT inhibitors were added to the 48-hour culture in some experiments. After 24 hours of incubation, the media was searched for mature oocytes that were immediately frozen. The media were then incubated for another 24 hours and searched again for other mature oocytes.
To also look at non-arrested human oocytes, we investigated the behavior of another cohort of human oocytes extracted from patients undergoing gonadotoxic treatment and therefore undergoing fertility preservation. In these cases, when hormonal induction and oocyte extraction are not possible due to the young age of the patient or social reasons, ovary surgical extraction is performed. After extraction, ovaries are dissected in medium in the IVF lab, and ovary tissue is cryopreserved. After remission, ovary tissue can be transplanted, and IVF performed. […]

SMILES | maturation rate versus vehicle (old mouse oocytes; vehicle-only negative control, FIG. 9A-9B) | maturation ability of human oocytes (human oocytes) | ability to induce maturation (first polar body extrusion and proper chromosome division) (old mouse oocytes; IVM media (a-MEM) with inhibitor, 24 hours, curcumin positive control, FIG. 9C-9D)
C=C(C)[C@@H](CC=C(C)C)C[C@@]12C[C@@H](CC=C(C)C)C(C)(C)[C@@](CC=C(C)C)(C(=O)C(C(=O)c3ccc(O)c(O)c3)=C1O)C2=O [Garcinol] | increased maturation rates, but to a lesser extent | did not impair their maturation ability and even increased it | 
Nc1ccn([C@@H]2CS[C@H](CO)O2)c(=O)n1 [Lamivudine] |  |  | comparable to curcumin

Source: US20250075176A1, “COMPOSITIONS COMPRISING HISTONE […] INHIBITORS OR REVERSE TRANSCRIPTASE INHIBITORS AND USE THEREOF” (FOREVE LABS LTD., priority 2022, published 2025)
